The values below are quoted from earlier work in patent US6979463B2, “Stable extended release oral dosage composition” (Schering Corporation, priority 1999, dated 2005).

Each structure is given as a SMILES string.

Data set [1] relates to cells of human origin. The conditions noted are these: in vitro, mainly cells of human origin; independent of the H1-antagonist effect.
The subject of data set [2] is seasonal allergic rhinitis patients. The settings on record: adult and adolescent patients; 4 double-blind, randomized clinical trials.

As for `Clc1ccc2c(c1)CCc1cccnc1C2=C1CCNCC1` [desloratadine], the “inhibition of events in the cascade of allergic inflammation” value in data set [1] was “can inhibit many events in the cascade of allergic inflammation”. Moreover, in data set [2], the “clinical efficacy in seasonal rhinitis” value is given as “demonstrated the efficacy”.
